PubChem BioAssay AID1224828, NIAID – 2016

- Purpose: 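Find genes required for NF-kappaB p65 moving into the nucleus after LPS in mouse macrophages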 (primary screen)
- Cells: mouse RAW264.7 G9 macrophage reporter cells (GFP-p65, Tnf promoter-mCherry)
- Reagents: siRNA pool against mouse genes, 100 nM
- Duration: 2 days siRNA transfection, then 40 min LPS before fixation
- Conditions: LPS (Salmonella minnesota R595) at 10 ng/ml
- Measurement: 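Imaged p65 nuclear translocation ratio, normalised to the plate median, converted to robust z-scores and averaged across two replicates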
- Scale: p65 translocation robust z-score: higher = more nuclear NF-kappaB p65 after LPS than the plate median; nuclear/cytoplasmic p65 ratio: higher = more nuclear NF-kappaB p65
- Rule for the call: 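Called active when z exceeds 3.3 or falls under -1.56 (median of Tlr4 controls), giving activity score of at least 50; no calls for control wells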
- Calls: active = hit (p65 shift raised or lowered); inactive = no clear change
Here is one part, drawn at random, of about 17,000 deposited reagents. 762 of all reagents (4.5%) were called active. 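Active calls include both raised and lowered p65 entry, mostly lowered; wells with fewer than 50 cells lack a z-score.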 Raw values are not corrected between plates.

| gene knocked down | PubChem SID | p65 translocation robust z-score | nuclear/cytoplasmic p65 ratio, rep 1 | nuclear/cytoplasmic p65 ratio, rep 2 | low cell count flag | Call |
| --- | --- | --- | --- | --- | --- | --- |
| D630029K05Rik (RIKEN cDNA D630029K05 gene) | SID315476364 | -0.91 | 1.35 | 1.51 | enough cells to score | inactive |
| Spag7 (sperm associated antigen 7) | SID315478051 | – | 1.28 | 1.08 | fewer than 50 cells per well; well left out of scoring | inactive |
| Dynlt2a1 (dynein light chain Tctex-type 2A1) | SID315469639 | 1.43 | 1.52 | 1.37 | enough cells to score | inactive |
| Dis3 | SID315474601 | 0.84 | 1.56 | 1.52 | enough cells to score | inactive |
| Ctsa (cathepsin A) | SID315468652 | 0.81 | 1.61 | 1.51 | enough cells to score | inactive |
| Ammecr1l (AMME chromosomal region gene 1-like) | SID315478412 | -2.77 | 1.11 | 0.997 | enough cells to score | active |
| Prkaa2 (protein kinase, AMP-activated, alpha 2 catalytic subunit) | SID315476684 | -1.29 | 1.47 | 1.22 | enough cells to score | inactive |
| Rap1b (RAS related protein 1b) | SID315477932 | – | 2.12 | 1.34 | fewer than 50 cells per well; well left out of scoring | inactive |
| Spryd7 (SPRY domain containing 7) | SID315472578 | -2.14 | 1.1 | 1.16 | enough cells to score | active |
| Ube3b (ubiquitin protein ligase E3B) | SID315477081 | 0.26 | 1.62 | 1.48 | enough cells to score | inactive |
| Or2aj6 (olfactory receptor family 2 subfamily AJ member 6) | SID315480577 | 1.24 | 1.7 | 1.67 | enough cells to score | inactive |
| Tsnax (translin-associated factor X) | SID315471074 | – | 1.35 | 1.24 | fewer than 50 cells per well; well left out of scoring | inactive |
| Cdkn1c (cyclin dependent kinase inhibitor 1C) | SID315465915 | 0 | 1.62 | 1.44 | enough cells to score | inactive |
| Sorcs1 (sortilin-related VPS10 domain containing receptor 1) | SID315471855 | -0.11 | 1.45 | 1.63 | enough cells to score | inactive |
| Mrps22 (mitochondrial ribosomal protein S22) | SID315472112 | -0.82 | 1.66 | 1.49 | enough cells to score | inactive |
| Dll3 (delta like canonical Notch ligand 3) | SID315466335 | 0.76 | 1.6 | 1.46 | enough cells to score | inactive |
| Marveld1 (MARVEL (membrane-associating) domain containing 1) | SID315480985 | 0.26 | 1.87 | 1.59 | enough cells to score | inactive |
| Ccdc51 (coiled-coil domain containing 51) | SID315472568 | 0.24 | 1.4 | 1.49 | enough cells to score | inactive |
| Cdo1 (cysteine dioxygenase 1, cytosolic) | SID315465920 | -0.41 | 1.54 | 1.71 | enough cells to score | inactive |
| Sall2 (spalt like transcription factor 2) | SID315470806 | -2.6 | 1.07 | 1.02 | enough cells to score | active |
| Ppil2 (peptidylprolyl isomerase (cyclophilin)-like 2) | SID315472182 | -0.33 | 1.36 | 1.16 | enough cells to score | inactive |
| Sh2d3c (SH2 domain containing 3C) | SID315470599 | -0.73 | 1.4 | 1.49 | enough cells to score | inactive |
| E130308A19Rik (RIKEN cDNA E130308A19 gene) | SID315478773 | – | 1.1 | 1.15 | fewer than 50 cells per well; well left out of scoring | inactive |
| Or10g1 (olfactory receptor family 10 subfamily G member 1) | SID315480105 | 1.74 | 1.86 | 1.66 | enough cells to score | inactive |
| Ctnna3 (catenin alpha 3) | SID315477968 | 1.59 | 1.8 | 1.47 | enough cells to score | inactive |
| Sypl2 (synaptophysin like 2) | SID315467915 | 1.97 | 1.99 | 1.86 | enough cells to score | inactive |
| Zfp688 (zinc finger protein 688) | SID315473761 | – | 1.5 | 1.78 | fewer than 50 cells per well; well left out of scoring | inactive |
| Nktr (natural killer tumor recognition sequence) | SID315468179 | -0.53 | 1.35 | 1.37 | enough cells to score | inactive |
| Bnip3l (BCL2/adenovirus E1B interacting protein 3-like) | SID315465664 | 0.03 | 1.64 | 1.6 | enough cells to score | inactive |
| Cerk (ceramide kinase) | SID315478289 | 1.38 | 2.02 | 1.47 | enough cells to score | inactive |
| Vmn1r11 (vomeronasal 1 receptor 11) | SID315476988 | 1.44 | 1.62 | 1.35 | enough cells to score | inactive |
| Borcs5 (BLOC-1 related complex subunit 5) | SID315473221 | 1.13 | 1.81 | 1.79 | enough cells to score | inactive |
| Fam107a (family with sequence similarity 107, member A) | SID315480791 | – | 1.18 | 1.24 | fewer than 50 cells per well; well left out of scoring | inactive |
| Tmigd1 (transmembrane and immunoglobulin domain containing 1) | SID315472533 | 0.72 | 1.42 | 1.4 | enough cells to score | inactive |
| Abi3 (ABI family member 3) | SID315472538 | -1.17 | 1.36 | 1.57 | enough cells to score | inactive |
| Amer1 (APC membrane recruitment 1) | SID315474524 | 0.96 | 1.5 | 1.61 | enough cells to score | inactive |
| Cox20 (cytochrome c oxidase assembly protein 20) | SID315472387 | – | 1.79 | 1.49 | fewer than 50 cells per well; well left out of scoring | inactive |
| Ttl (tubulin tyrosine ligase) | SID315473886 | -0.92 | 1.27 | 1.13 | enough cells to score | inactive |
| Or2ak7 (olfactory receptor family 2 subfamily AK member 7) | SID315478027 | – | 1.32 | 1.12 | fewer than 50 cells per well; well left out of scoring | inactive |
| Plcz1 (phospholipase C, zeta 1) | SID315477046 | – | 1.47 | 1.09 | fewer than 50 cells per well; well left out of scoring | inactive |
| Med20 (mediator complex subunit 20) | SID315471676 | -0.01 | 1.42 | 1.2 | enough cells to score | inactive |
| Cpm (carboxypeptidase M) | SID315474087 | -0.77 | 1.39 | 1.6 | enough cells to score | inactive |
| Cyb561d2 (cytochrome b-561 domain containing 2) | SID315471485 | -1.57 | 1.24 | 1.2 | enough cells to score | active |
| 5330439M10Rik (RIKEN cDNA 5330439M10 gene) | SID315475544 | – | 1.14 | 2.33 | fewer than 50 cells per well; well left out of scoring | inactive |
| HMGB2 | SID315482036 | -1.93 | 1.27 | 1.28 | enough cells to score | active |
| Ryk (receptor-like tyrosine kinase) | SID315469071 | -0.73 | 1.95 | 1.28 | enough cells to score | inactive |
| Duoxa2 (dual oxidase maturation factor 2) | SID315472648 | -0.6 | 1.34 | 1.47 | enough cells to score | inactive |
| Tceal1 (transcription elongation factor A (SII)-like 1) | SID315479324 | -0.59 | 1.32 | 1.1 | enough cells to score | inactive |
| Dclre1b (DNA cross-link repair 1B) | SID315477158 | -1.44 | 1.29 | 1.17 | enough cells to score | inactive |
| Hars1 (histidyl-tRNA synthetase 1) | SID315467144 | 0.07 | 1.7 | 1.51 | enough cells to score | inactive |
| Or52ae7 (olfactory receptor family 52 subfamily AE member 7) | SID315480400 | 1.26 | 1.65 | 1.38 | enough cells to score | inactive |
| Atp10b (ATPase, class V, type 10B) | SID315481165 | -0.26 | 1.44 | 1.45 | enough cells to score | inactive |
| Mix23 (mitochondrial matrix import factor 23) | SID315481764 | -0.15 | 1.48 | 1.77 | enough cells to score | inactive |
| Ppfia1 | SID315479131 | 0.31 | 1.55 | 1.44 | enough cells to score | inactive |
| Them7 (thioesterase superfamily member 7) | SID315474837 | 0.1 | 1.72 | 1.31 | enough cells to score | inactive |
| Iqsec1 (IQ motif and Sec7 domain 1) | SID315478970 | -1.58 | 1.38 | 1.28 | enough cells to score | active |
| Itgb1bp2 (integrin beta 1 binding protein 2) | SID315470433 | – | 1.23 | 1.13 | fewer than 50 cells per well; well left out of scoring | inactive |
| Or2j3 (olfactory receptor family 2 subfamily J member 3) | SID315480158 | -0.98 | 1.45 | 1.3 | enough cells to score | inactive |
| Cyp2c55 (cytochrome P450, family 2, subfamily c, polypeptide 55) | SID315474446 | -0.53 | 1.39 | 1.32 | enough cells to score | inactive |
| Adora2b (adenosine A2b receptor) | SID315465318 | 1.36 | 1.69 | 1.79 | enough cells to score | inactive |
| Tafa2 (TAFA chemokine like family member 2) | SID315480758 | -0.66 | 1.52 | 1.57 | enough cells to score | inactive |
| Trip11 (thyroid hormone receptor interactor 11) | SID315476798 | 2.23 | 1.9 | 2 | enough cells to score | inactive |
| Csf1r (colony stimulating factor 1 receptor) | SID315466157 | 0.04 | 1.74 | 1.36 | enough cells to score | inactive |
| Defa-rs12 (defensin, alpha, related sequence 12) | SID315466304 | -0.2 | 1.53 | 1.53 | enough cells to score | inactive |
| Kctd6 (potassium channel tetramerisation domain containing 6) | SID315474230 | – | 1.34 | 1.23 | fewer than 50 cells per well; well left out of scoring | inactive |
| Prr9 (proline rich 9) | SID315476822 | – | 1.27 | 1.3 | fewer than 50 cells per well; well left out of scoring | inactive |
| H2-Ab1 (histocompatibility 2, class II antigen A, beta 1) | SID315467101 | – | 0 | 1.36 | fewer than 50 cells per well; well left out of scoring | inactive |
| H2-Ab1 (histocompatibility 2, class II antigen A, beta 1) | SID315477048 | – | 1.4 | 1.23 | fewer than 50 cells per well; well left out of scoring | inactive |
| Nell1 (NEL-like 1) | SID315481669 | -0.28 | 1.58 | 1.45 | enough cells to score | inactive |
| Ms4a1 (membrane-spanning 4-domains, subfamily A, member 1) | SID315465843 | -0.19 | 1.39 | 1.35 | enough cells to score | inactive |
| Herc6 (hect domain and RLD 6) | SID315472861 | -0.58 | 1.57 | 1.49 | enough cells to score | inactive |
| Man2c1 (mannosidase, alpha, class 2C, member 1) | SID315474780 | 0.84 | 1.63 | 1.38 | enough cells to score | inactive |
| A530020G20Rik (RIKEN cDNA A530020G20 gene) | SID315481178 | 0.53 | 1.41 | 1.64 | enough cells to score | inactive |
| Zfp608 (zinc finger protein 608) | SID315480823 | 2.29 | 1.62 | 1.49 | enough cells to score | inactive |
| Gas7 (growth arrest specific 7) | SID315466834 | -1.18 | 1.22 | 1.28 | enough cells to score | inactive |

Called active, of those listed so far:
| gene knocked down | PubChem SID | p65 translocation robust z-score | nuclear/cytoplasmic p65 ratio, rep 1 | nuclear/cytoplasmic p65 ratio, rep 2 | low cell count flag | Call |
| --- | --- | --- | --- | --- | --- | --- |
| Ammecr1l (AMME chromosomal region gene 1-like) | SID315478412 | -2.77 | 1.11 | 0.997 | enough cells to score | active |
| Spryd7 (SPRY domain containing 7) | SID315472578 | -2.14 | 1.1 | 1.16 | enough cells to score | active |
| Sall2 (spalt like transcription factor 2) | SID315470806 | -2.6 | 1.07 | 1.02 | enough cells to score | active |
| Cyb561d2 (cytochrome b-561 domain containing 2) | SID315471485 | -1.57 | 1.24 | 1.2 | enough cells to score | active |
| HMGB2 | SID315482036 | -1.93 | 1.27 | 1.28 | enough cells to score | active |
| Iqsec1 (IQ motif and Sec7 domain 1) | SID315478970 | -1.58 | 1.38 | 1.28 | enough cells to score | active |
